According to patent publication US7303876B2 (Applera Corporation, priority 2000, dated 2007):

Tested on: Calf thymus genomic DNA
Assay: Reversibility of surfactant-nucleic acid precipitate in chaotrope solutions
Assay type: physicochemical
Parameters: key: R - DNA precipitate formed in 1.6% cationic surfactant, dissolved after addition of chaotropic solution, but surfactant precipitate did not dissolve; IR - DNA precipitate did not dissolve
Settings: 1.6% surfactant, 50 mM MES pH 6.0

SMILES	whether the DNA precipitate dissolved after addition of chaotropic solution (5M GuHCl)	whether the DNA precipitate dissolved after addition of chaotropic solution (5M GuSCN)	whether the DNA precipitate dissolved after addition of chaotropic solution (5M LiBr)	whether the DNA precipitate dissolved after addition of chaotropic solution (5M LiCl)	whether the DNA precipitate dissolved after addition of chaotropic solution (5M LiI)	whether the DNA precipitate dissolved after addition of chaotropic solution (5M NaBr)	whether the DNA precipitate dissolved after addition of chaotropic solution (5M NaI)	whether the DNA precipitate dissolved after addition of chaotropic solution (5M NaSCN)
CCCCCCCCCCCC[N+](C)(C)C.[Cl-] [DTACl, dodecyltrimethylammonium chloride]	R	R	R	R	R	R	R	R
CCCCCCCCCCCC[N+](C)(C)C.[Br-] [DTAB, dodecyltrimethylammonium bromide]	R	R	R	R	R	R	IR	R
